PubChem BioAssay AID1224826, NIAID | 2016

- Purpose: 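Genes that change LPS-induced Tnf promoter activity in mouse macrophages when knocked down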 (primary screen)
- System: RAW264.7 G9 macrophages from mouse bearing reporters for p65 (GFP) and the Tnf promoter (mCherry)
- Reagents: siRNA pool against mouse genes, 100 nM
- Timing: 16 h of LPS stimulation, after 2 days of siRNA transfection
- Challenge: bacterial lipopolysaccharide (Salmonella minnesota R595), 10 ng/ml
- Read-out: 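Nuclear mCherry signal of the Tnf promoter reporter measured by imaging after background removal, scaled to each plate median and turned into robust z-scores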
- Reading the numbers: Tnf reporter robust z-score: higher = stronger Tnf promoter reporter signal after LPS
- Hit rule: 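Called active when robust z-score is at most -1.3, matching the median of the Tlr4 knock-down control, or over 3; control wells and wells with under 50 cells never active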
- Meaning of the calls: active = Tnf reporter clearly lowered or raised; inactive = no clear change in Tnf reporter
This is a random part of about 17,000 reagents tested. About 1,110 of them (6.6%) count as active. 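Active means lowered or raised reporter signal; replicate intensities are raw and not normalised per plate.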 A number with no mark means an inactive call. Further read-outs or replicates are left out here. Reagent sequences are not shown.

{"target gene": "Faim2 (Fas apoptotic inhibitory molecule 2)", "PubChem SID": "SID315474538", "Tnf reporter robust z-score": -0.46, "fewer than 50 cells in well": "enough cells in well"}
{"target gene": "Scg2 (secretogranin II)", "PubChem SID": "SID315469108", "Tnf reporter robust z-score": -0.27, "fewer than 50 cells in well": "enough cells in well"}
{"target gene": "Jak1 (Janus kinase 1)", "PubChem SID": "SID315467544", "Tnf reporter robust z-score": 0.57, "fewer than 50 cells in well": "enough cells in well"}
{"target gene": "Ppwd1 (peptidylprolyl isomerase domain and WD repeat containing 1)", "PubChem SID": "SID315479407", "fewer than 50 cells in well": "fewer than 50 cells per well; well left out of calls"}
{"target gene": "Lrrn3 (leucine rich repeat protein 3, neuronal)", "PubChem SID": "SID315467768", "Tnf reporter robust z-score": 0.55, "fewer than 50 cells in well": "enough cells in well"}
{"target gene": "Golph3l (golgi phosphoprotein 3-like)", "PubChem SID": "SID315478720", "fewer than 50 cells in well": "fewer than 50 cells per well; well left out of calls"}
{"target gene": "Cdk4 (cyclin dependent kinase 4)", "PubChem SID": "SID315465907", "Tnf reporter robust z-score": 1.05, "fewer than 50 cells in well": "enough cells in well"}
{"target gene": "Wee1 (WEE 1 homolog 1 (S. pombe))", "PubChem SID": "SID315470030", "fewer than 50 cells in well": "fewer than 50 cells per well; well left out of calls"}
{"target gene": "Tulp3 (TUB like protein 3)", "PubChem SID": "SID315469882", "fewer than 50 cells in well": "fewer than 50 cells per well; well left out of calls"}
{"target gene": "Oog3 (oogenesin 3)", "PubChem SID": "SID315476200", "Tnf reporter robust z-score": -1.12, "fewer than 50 cells in well": "enough cells in well"}
{"target gene": "2900052N01Rik (RIKEN cDNA 2900052N01 gene)", "PubChem SID": "SID315474667", "fewer than 50 cells in well": "fewer than 50 cells per well; well left out of calls"}
{"target gene": "Bmp15 (bone morphogenetic protein 15)", "PubChem SID": "SID315465648", "Tnf reporter robust z-score": 1.24, "fewer than 50 cells in well": "enough cells in well"}
